Taken from: PubChem BioAssay AID1671195 (Yale University, 2021)

Assay: 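Knockdowns that increase or decrease uptake of fluorescent LDL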 (primary screen)
Cell system: human Huh7 hepatoma cells
Reagents: siRNA pool against human genes, 18 nM
Timing: about 2 to 2.5 days of knockdown, then 8 h LDL uptake
Conditions: DiI-labelled LDL at 30 µg/ml for 8 h, in lipoprotein-deficient serum medium
Measured: 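Per-cell DiI-LDL intensity by automated imaging; well means scaled to the plate median and given as a robust z-score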
Scale: robust z-score: higher = more LDL uptake after knockdown
Rule for the call: 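a gene counts as active if at least two replicate z-scores exceed ±2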
Here is an unselected part of about 22,000 reagents tested. About 1,510 of them (6.9%) count as active. 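Active includes knockdowns raising or lowering LDL uptake; positive z-scores mean more uptake, negative mean less.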

SLC10A1 gave robust z-score, replicate 1 = -0.949; robust z-score, replicate 2 = -0.465; robust z-score, replicate 3 = -0.937; inactive. With knock-down of RETREG1, the record shows robust z-score, replicate 1 = -1.25; robust z-score, replicate 2 = 0.836; robust z-score, replicate 3 = -0.554; inactive. Against APOBEC4, the entry reads robust z-score, replicate 1 = -0.13; robust z-score, replicate 2 = -0.6; robust z-score, replicate 3 = -0.995; inactive. For FRG2DP, the values are robust z-score, replicate 1 = -1.06; robust z-score, replicate 2 = -0.816; robust z-score, replicate 3 = -0.952; inactive. Knock-down of EFHC1 resulted in: robust z-score, replicate 1 = -0.673; robust z-score, replicate 2 = -1.47; robust z-score, replicate 3 = -1.7; inactive. With knock-down of NRP2 the results were robust z-score, replicate 1 = 0.912; robust z-score, replicate 2 = 0.676; robust z-score, replicate 3 = 0.487; inactive.

Against OS9 the deposit lists robust z-score, replicate 1 = -0.14; robust z-score, replicate 2 = -1.03; robust z-score, replicate 3 = 0.0474; inactive. CPNE6 showed robust z-score, replicate 1 = -0.0725; robust z-score, replicate 2 = -0.0103; robust z-score, replicate 3 = 0.134; inactive. With knock-down of NUBPL the results were robust z-score, replicate 1 = -1.41; robust z-score, replicate 2 = -1.41; robust z-score, replicate 3 = -1.14; inactive. After knock-down of ACSM4 the results were robust z-score, replicate 1 = 5.45; robust z-score, replicate 2 = 6.65; robust z-score, replicate 3 = 5.56; active. Against CBX5 the deposit lists robust z-score, replicate 1 = -0.891; robust z-score, replicate 2 = -1; robust z-score, replicate 3 = -1.49; inactive. For KIF6, the entry reads robust z-score, replicate 1 = 2.09; robust z-score, replicate 2 = 0.661; robust z-score, replicate 3 = 0.93; inactive.

After knock-down of LOC391779 (retired record) the results were robust z-score, replicate 1 = -0.124; robust z-score, replicate 2 = 0.162; robust z-score, replicate 3 = 0.167; inactive. Against FZD3, the entry reads robust z-score, replicate 1 = -1.34; robust z-score, replicate 2 = -1.24; robust z-score, replicate 3 = -1.06; inactive. Silencing of DMXL2 gave: robust z-score, replicate 1 = 0.17; robust z-score, replicate 2 = -0.688; robust z-score, replicate 3 = -0.419; inactive. Against RGS9, the values are robust z-score, replicate 1 = 0.144; robust z-score, replicate 2 = 0.582; robust z-score, replicate 3 = 0.519; inactive. Silencing of PNOC came out at: robust z-score, replicate 1 = 0.708; robust z-score, replicate 2 = 0.432; robust z-score, replicate 3 = 0.803; inactive. With knock-down of CAPS2 the results were robust z-score, replicate 1 = -1.06; robust z-score, replicate 2 = -1.5; robust z-score, replicate 3 = -0.795; inactive.

Against HPS6 the deposit lists robust z-score, replicate 1 = -0.811; robust z-score, replicate 2 = -0.784; robust z-score, replicate 3 = -1.07; inactive. PSMC6 gave robust z-score, replicate 1 = 0.593; robust z-score, replicate 2 = -0.0833; robust z-score, replicate 3 = -0.635; inactive. Silencing of RPL7AP34 resulted in: robust z-score, replicate 1 = -0.839; robust z-score, replicate 2 = -1.4; robust z-score, replicate 3 = -1.48; inactive. After knock-down of CTSH, the record shows robust z-score, replicate 1 = 0.242; robust z-score, replicate 2 = -0.411; robust z-score, replicate 3 = 0.166; inactive. After knock-down of LEF1, the screen gave robust z-score, replicate 1 = 0.84; robust z-score, replicate 2 = 0.985; robust z-score, replicate 3 = 0.687; inactive. Against MZF1 the deposit lists robust z-score, replicate 1 = 1.23; robust z-score, replicate 2 = 1.35; robust z-score, replicate 3 = 2.01; inactive.

OXNAD1 gave robust z-score, replicate 1 = -0.169; robust z-score, replicate 2 = -0.533; robust z-score, replicate 3 = -0.275; inactive. After knock-down of MRPL42 the results were robust z-score, replicate 1 = -1.19; robust z-score, replicate 2 = -1.55; robust z-score, replicate 3 = -0.606; inactive. For LOC439981 (retired record), the entry reads robust z-score, replicate 1 = 0.661; robust z-score, replicate 2 = 1.03; robust z-score, replicate 3 = 0.95; inactive. C20orf173 showed robust z-score, replicate 1 = 0.628; robust z-score, replicate 2 = 0.496; robust z-score, replicate 3 = 0.212; inactive. Against LOC400888 (retired record) the deposit lists robust z-score, replicate 1 = -1; robust z-score, replicate 2 = -1.03; robust z-score, replicate 3 = -0.938; inactive. After knock-down of RADX, the record shows robust z-score, replicate 1 = 1.94; robust z-score, replicate 2 = -0.0926; robust z-score, replicate 3 = 0.498; inactive.

2 entries from above, arranged by “robust z-score, replicate 2”, ascending:
FRG2DP | robust z-score, replicate 1 = -1.06; robust z-score, replicate 2 = -0.816; robust z-score, replicate 3 = -0.952; call = inactive
APOBEC4 | robust z-score, replicate 1 = -0.13; robust z-score, replicate 2 = -0.6; robust z-score, replicate 3 = -0.995; call = inactive
